Test results reported in patent publication US20090247644A1, “MEMANTINE FORMULATIONS” (FOREST LABORATORIES HOLDINGS LIMITED, priority 2008, published 2009).

Test: Taste test of crystals dry coated with taste masking and flavoring agents
Settings: crystals dry coated with flavoring and taste masking agents (8.0 g active, 1.3 g agents), n=2, hydrochloride
Protocol: In an attempt to mask the bitter taste of memantine, equant-shaped crystals of memantine hydrochloride and needle-shaped crystals of memantine hydrochloride were independently dry coated with taste masking and flavoring agents e.g. Mimic Nat Powder, Neohesperidine, MR-77 Masking Fl, MW-94 Masking NFF, MQ-82 Prosweet Fl, Lemon Juice powder, Lemon Crystarome the components being blended for 5 minutes. The coated particles were tasted (n=2), without the individuals receiving a dose of the drug, to determine the effectiveness of the taste-masking. The bitter taste of the needle-like crystals was perceived immediately (in less than 5 seconds). The bitter taste of equant-shaped crystals could not be perceived for 10 seconds upon tasting.

Compound | Time until bitter taste perceived [s] | Time until bitter taste perceived (listed as needle-like crystals)
CC12CC3CC(C)(C1)CC(N)(C3)C2 [Equant-shaped crystals of Memantine HCl, memantine hydrochloride] | ≥ 10 | 
CC12CC3CC(C)(C1)CC(N)(C3)C2 [Needle-shaped crystals of Memantine HCl, memantine hydrochloride] |  | less than 5 seconds

Where a name gives a salt, the structure may show the parent alone.
